Laboratory results as given in PubChem BioAssay AID595 (National Center for Advancing Translational Sciences (NCATS), 2007).
Out of some 71,000 compounds screened, about 310 (0.44%) were called active. This list was built around the results that the source calls inconclusive (neither active nor inactive); the mix of calls is not that of the screen. Calls follow the shape of the dose curve; as a rule, active = well fitted curve in either direction with a large enough effect; inconclusive = small, poorly fitted or top-dose-only effect, or another doubt; inactive = flat fitted curve, though single readings scatter. Where the call is inconclusive, the potency comes from a doubtful curve fit.

system: Hsp90 C-terminal peptide / TPR2A (Hop) interaction, human; test: qHTS Assay for Disrupters of an Hsp90 Co-Chaperone Interaction; conditions: AlphaScreen TPR2A-His6 binding biotin-Hsp90 C-terminal peptide; activity change, negative = inhibition: at 57 µM (top of the series) unless noted
% is scaled to controls: 0 for no effect and ±100 for the full control effect; potency is read from the fitted curve at half-maximal effect.

SMILES | activity change, negative = inhibition | Potency
O=C(Oc1ccccc1)N1CCN(c2ccc(F)cc2)CC1 | inconclusive: 71.3% [at 11 µM] | –
O=C(O)CCCCC(=O)O | inactive | –
COc1ccc(-c2[nH]c(-c3cccc(OC)c3)nc2SCC(=O)NCc2ccco2)cc1 | – | inconclusive: 31.6 µM [inhibitor, single point]
Cc1ccccc1-c1ccc(C=Nc2c(C)n(C)n(-c3ccccc3)c2=O)o1 | – | inconclusive: 25.1 µM [inhibitor, partial curve]
CCSc1oc(-c2ccccc2)nc1S(=O)(=O)c1ccccc1 | inconclusive: 108% | –
CCCCOCC1CN(c2ccccc2)C(=O)CS1 (configuration not stated) | inconclusive: 46.2% | –
O=C(CSc1nnc(-c2ccccc2F)o1)OCc1ccccc1 | inconclusive: 132% | –
CCC(=O)NC(=Nc1nc2ccccc2s1)NC(=O)CC | inconclusive: 47.5% | –
COC(=O)c1c(NC(=O)CN2CCCC(C)C2)c2c(C)cccc2n1C (configuration not stated) | inconclusive: 47.7% | –
C=CCn1c(=O)c2c(nc3n2CCN3c2cccc(Cl)c2C)n(C)c1=O | inconclusive: 26.1% | –
c1cncc(-c2cc(NCc3cccs3)ncn2)c1 | inactive | –
CCOC(=O)Cc1csc(NC(=O)CCN2C(=O)c3ccccc3C2=O)n1 | inconclusive: 39.4% | –
COc1cc(S(=O)(=O)N2CCC(C(N)=O)CC2)c(C)cc1C | inconclusive: 45.5% | –
CN1CCc2cc(Cl)c(O)cc2[C@@H](c2ccccc2)C1 | inactive | –
COc1ccc(-c2cc(NCCc3ccncc3)n3ncnc3n2)cc1 | inconclusive: 41.2% | –
CCNc1ncc2nc(-c3ccccc3)c(=O)n(C)c2n1 | inconclusive: 142% | –
CCCn1nc(C(=O)NCCc2ccc(S(N)(=O)=O)cc2)c2ccccc2c1=O | inconclusive: 47.8% | –
CCSCCOC(=O)C1=C(C)NC2=C(C(=O)CCC2)C1c1coc2ccccc2c1=O (configuration not stated) | – | inconclusive: 25.1 µM [inhibitor, single point]
CSc1nc(C)cc(NC(N)=O)n1 | inconclusive: 72.6% | –
COCCOC(=O)c1c(C)oc2ccc(OCc3cc(C(=O)OC)oc3C)cc12 | – | inconclusive: 31.6 µM [activator, single point]
O=C(CN1C(=O)c2ccccc2S1(=O)=O)NCCSC1CCCCC1 | inconclusive: 52.6% | –
CCc1nc(C)c(C#N)c2cc(OC)c(OC)cc12 | inconclusive: 35.2% | –

SMILES | activity change, negative = inhibition | Potency
COc1cc(C(=O)NCCCCCC(=O)O)cc(OC)c1OC | inconclusive: 61% | –
COC(=O)c1ccc(-n2nnnc2SCc2ccccc2OC)cc1 | – | inconclusive: 31.6 µM [activator, single point]
Cc1cnc(C(=O)Nc2ccc3c(c2)CCC3)cn1 | inactive | –
Cc1nn(Cc2ccc(Cl)cc2Cl)c(C)c1NC(=O)c1nc2n(n1)C(C(F)F)CC(C)N2 (configuration not stated) | inconclusive: 33.1% | –
NC(=O)CNCCC(c1ccccc1)c1ccccc1 | inactive | –
COc1ccc(-c2nc3cnc(N4CCN(C)CC4)nc3n(Cc3cccs3)c2=O)cc1 | inactive | –
Cn1c(=O)c2c(nc(SCC(=O)c3cccs3)n2Cc2ccc(F)cc2)n(C)c1=O | inconclusive: 48.5% | –
CS(=O)(=O)Nc1ccc(C(=O)NCc2ccco2)cc1 | inconclusive: 46.5% | –
Cc1cccc(OCc2nc(C#N)c(NCc3ccc4c(c3)OCO4)o2)c1 | – | inconclusive: 25.1 µM [inhibitor, partial curve]
O=C(COC(=O)c1cncc(Br)c1)NCCC1=CCCCC1 | inactive | –
CN1CCN(c2oc(COc3ccc(-c4ccccc4)cc3)nc2C#N)CC1 | – | inconclusive: 25.1 µM [inhibitor, partial curve]
N#Cc1ccc(C(c2nnnn2CCc2ccccc2)N2CCCCCC2)cc1 (configuration not stated) | inconclusive: 74.3% | –
COC(=O)[C@@H]1C(O)[C@@H](C(=O)OC)[C@H](C)N(C)[C@@H]1C (some centres not stated) | inactive: -0.239% [at 11 µM] | –
COCCOC(=O)c1c(C)oc2ccc(OC(=O)c3cccs3)cc12 | – | inconclusive: 25.1 µM [activator, single point]
CN[C@H]1[C@H](O)[C@@H](O[C@@H]2[C@H](O)[C@@H](O[C@H]3OC(CN)=CC[C@H]3N)[C@@H](N)C[C@H]2N)OC[C@@]1(C)O | inactive | –
COc1ccc(-c2noc(CCC(=O)NCc3cccnc3)n2)cc1 | inconclusive: 34.7% | –
O=C(Nc1ccc(Cl)cc1)NC1(C(=O)NCCCN2CCOCC2)CCCCC1 | inconclusive: 49.8% | –
N#Cc1nc(-c2ccco2)oc1N1CCN(c2cccc(Cl)c2)CC1 | – | inconclusive: 25.1 µM [inhibitor, single point]
Cc1cccc(CNc2nc(-c3ccoc3)nc3ccccc23)c1 | inactive | –
Cc1c(C(=O)Nc2ccncc2)oc2ccccc12 | inactive | –
Cc1ccc(NC(=O)c2cccc(OCc3c(C)noc3C)c2)c(C)c1 | inconclusive: 53.8% | –
CCOC(=O)c1ccc(-c2c(C(=O)OCC)oc3cc(O)c(CC)cc3c2=O)o1 | inconclusive: 38.5% | –

SMILES | activity change, negative = inhibition | Potency
CCOC(=O)CSc1nnc(CNC(=O)c2ccc(OC)c(OC)c2)n1C | inconclusive: 36% | –
CC(C)(O)C(=O)O | inconclusive: 53.1% | –
COc1cc(NC(=O)c2ccc3c(c2)OCO3)ccc1NC(=O)C(C)C | inactive | –
Cc1cccc2nc(C(F)(F)F)nc(=O)n12 | inconclusive: 45.6% | –
NCCCCN=C(N)N | inactive | –
COc1ccccc1CNC(=O)c1ccc(S(=O)(=O)N2CCCC2)cc1 | inconclusive: 29.2% | –
c1ccc(N2CCN(c3nc4ccccc4n4nnnc34)CC2)cc1 | – | inconclusive: 20 µM [activator, single point]
CC1=CC(C)(C)N(C(=O)c2ccc(F)cc2)c2cc3c(cc21)OCO3 | – | inconclusive: 39.8 µM [inhibitor, single point]
CN(C)CCCNC(=O)c1ccc(-c2ccccc2)cc1 | inconclusive: 46.1% | –
COc1ccc(-c2cc(C(=O)N3CCCCC3)no2)cc1OC | inconclusive: 40.3% | –
Nn1c(-c2cccs2)nc2sc3c(c2c1=O)CCCC3 | – | inconclusive: 15.8 µM [activator, partial curve]
Cc1ccc(-c2oc3ncnc(N)c3c2-c2ccc(C)cc2)cc1 | inconclusive: 41.8% | –
O=C(Nc1cccnc1)Nc1ccc(F)c(Cl)c1 | inconclusive: 51.1% | –
CCOC(=O)c1sc(C(=O)OCC)c(OCCO)c1OCCO | inconclusive: 46.4% | –
CNc1nc(SCc2ccccc2)nc(N2CCOCC2)n1 | inactive | –
CC(=O)[C@@H]1CC[C@@H]2[C@@H]3C[C@H](C)C4=CC(=O)CC[C@@]4(C)[C@H]3[C@H](O)C[C@]21C | inactive | –
O=c1[nH]c(N2CCc3ccccc3C2)nc2c1CCC2 | – | inconclusive: 20 µM [inhibitor, partial curve]
CCOC(=O)C1=C(CS(=O)(=O)c2ccccc2)NC(=O)NC1c1ccccc1OCC (configuration not stated) | inconclusive: 41.5% [at 2.3 µM] | –
CCOC(=O)c1oc2ccccc2c1CSc1nnc(-c2ccco2)o1 | inactive | –
Cn1cccc1C(=O)N1CCC2(CCCN(Cc3ccncc3)C2)CC1 | inactive | –
COc1ccc(NC(=O)N2CC3(CCN(C(=O)c4cnccn4)CC3)C2)cc1 | inactive | –
Cc1cc(C(=O)Nc2ccc3c(c2)OCCO3)c(C)o1 | inconclusive: 43.6% | –

Entries shown so far that contain a Cl atom, in the order listed:
SMILES | activity change, negative = inhibition | Potency
C=CCn1c(=O)c2c(nc3n2CCN3c2cccc(Cl)c2C)n(C)c1=O | inconclusive: 26.1% | –
CN1CCc2cc(Cl)c(O)cc2[C@@H](c2ccccc2)C1 | inactive | –
Cc1nn(Cc2ccc(Cl)cc2Cl)c(C)c1NC(=O)c1nc2n(n1)C(C(F)F)CC(C)N2 (configuration not stated) | inconclusive: 33.1% | –
O=C(Nc1ccc(Cl)cc1)NC1(C(=O)NCCCN2CCOCC2)CCCCC1 | inconclusive: 49.8% | –
N#Cc1nc(-c2ccco2)oc1N1CCN(c2cccc(Cl)c2)CC1 | – | inconclusive: 25.1 µM [inhibitor, single point]
O=C(Nc1cccnc1)Nc1ccc(F)c(Cl)c1 | inconclusive: 51.1% | –

Additional structures.

SMILES | activity change, negative = inhibition | Potency
CC1=CC(=O)CC(C)(C)[C@@]1(O)/C=C\C(C)=C\C(=O)O | inactive | –
CCN(CC)S(=O)(=O)c1cccc(-c2nnc(SCCOc3ccccc3)o2)c1 | – | inconclusive: 25.1 µM [activator, single point]
COCCNC(=O)C1CC(=O)N(C2CCCCC2)C1 (configuration not stated) | inconclusive: 38.4% | –
COc1cccc(Cn2c(=O)c(-c3cn(C)c4ccccc34)nc3cncnc32)c1 | inactive | –
Cc1c(Cc2ccccc2)c(=O)oc2cc(OCc3nn[nH]n3)ccc12 | inactive | –
O=C(O)CCc1c2ccc(=O)c(O)c-2oc2c(O)c(O)ccc12 | – | inconclusive: 3.98 µM [inhibitor, single point]
O=C(Nc1cccc2ccccc12)N1CCOCC1 | inconclusive: 41.2% | –
Cn1c(=O)c(-c2ccccc2)nc2cnc(OCc3ccccc3)nc21 | inactive | –
COCCNc1cc(-c2ccccc2C(F)(F)F)ncn1 | inactive | –
COc1ccc(NC(=O)CNS(=O)(=O)c2ccc3nc(C)sc3c2)c(OC)c1 | inconclusive: 46.9% | –
Cc1oc(C)c(C(=O)Nc2ccc(CC(=O)O)cc2)c1C(=O)Nc1ccc(CC(=O)O)cc1 | inconclusive: 55.4% | –
O=c1oc2ccccc2n1CSc1nc2ccccc2s1 | inconclusive: 101% | –
COC(=O)CSc1nc(N2CCCCC2)c2c(c1C#N)CCCC2 | inactive | –
COC(=O)c1cc2sccc2n1Cc1ccc(C)cc1 | – | inconclusive: 31.6 µM [activator, single point]
O=C(CSc1nnc(CNC(=O)c2ccccc2F)o1)c1ccc(Cl)cc1 | inactive | –
COC(=O)c1c(F)c(F)c(NCCO)c(F)c1F | inconclusive: 33.6% | –
N#Cc1c(-c2ccccc2)cc(-c2ccco2)c(C#N)c1N | inconclusive: 18.2% | –
Cc1ccc2nc(/C(C#N)=N/O)[nH]c2c1 | – | inconclusive: 31.6 µM [inhibitor, single point]
COC(=O)C(C)Sc1nc2c(c(=O)n(C)c(=O)n2C)n1Cc1cccc(C)c1 (configuration not stated) | inconclusive: 91.9% | –
O=C(c1cc(C(F)(F)F)cc(C(F)(F)F)c1)N1CCC[C@@]2(CCN(Cc3ccncc3)C2)C1 | inactive | –
[N-]=[N+]=CC(=O)CC(c1ccccc1)N1C(=O)c2ccccc2C1=O (configuration not stated) | – | inconclusive: 31.6 µM [inhibitor, single point]
